In paper PMC9322903:
No constants are given. Whether binding was seen depends on the method and setting. In cells and extracts the contact can be indirect. Some binding calls cover weakened binding; strength is not graded here.

Protein sequences, listed by entry. Tags and fused reporters are not part of them.
UniProt A0A0G2K344: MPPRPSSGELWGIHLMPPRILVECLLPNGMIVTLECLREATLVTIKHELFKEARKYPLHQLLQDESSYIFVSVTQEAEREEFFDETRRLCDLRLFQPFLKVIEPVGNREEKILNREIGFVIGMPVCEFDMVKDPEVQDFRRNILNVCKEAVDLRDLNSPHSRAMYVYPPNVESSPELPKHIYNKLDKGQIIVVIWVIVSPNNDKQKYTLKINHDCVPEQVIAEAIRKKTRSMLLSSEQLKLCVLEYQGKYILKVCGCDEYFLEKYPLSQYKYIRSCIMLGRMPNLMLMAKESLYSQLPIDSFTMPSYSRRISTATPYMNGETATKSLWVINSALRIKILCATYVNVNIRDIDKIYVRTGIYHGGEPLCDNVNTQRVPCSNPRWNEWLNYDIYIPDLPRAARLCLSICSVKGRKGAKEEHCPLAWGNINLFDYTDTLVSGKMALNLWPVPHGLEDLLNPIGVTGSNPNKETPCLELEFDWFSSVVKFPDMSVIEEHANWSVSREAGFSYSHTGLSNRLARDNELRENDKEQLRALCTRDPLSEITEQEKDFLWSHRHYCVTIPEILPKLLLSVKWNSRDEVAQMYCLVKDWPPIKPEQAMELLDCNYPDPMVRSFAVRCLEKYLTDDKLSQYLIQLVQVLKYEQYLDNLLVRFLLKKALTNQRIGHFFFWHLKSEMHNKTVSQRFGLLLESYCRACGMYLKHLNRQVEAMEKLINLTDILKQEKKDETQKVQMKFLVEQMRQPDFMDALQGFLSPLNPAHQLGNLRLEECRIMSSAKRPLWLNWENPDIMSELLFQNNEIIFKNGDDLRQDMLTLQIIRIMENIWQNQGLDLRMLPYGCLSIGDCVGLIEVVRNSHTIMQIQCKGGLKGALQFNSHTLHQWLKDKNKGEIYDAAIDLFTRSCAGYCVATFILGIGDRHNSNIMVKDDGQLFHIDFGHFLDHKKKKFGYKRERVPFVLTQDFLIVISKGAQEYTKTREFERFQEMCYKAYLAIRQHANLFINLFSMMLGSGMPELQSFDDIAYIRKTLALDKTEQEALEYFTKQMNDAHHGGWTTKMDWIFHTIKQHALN

T1: Phosphoinositide-3-kinase (PI3K)-interacting protein 1 (PIK3IP1) (rat (endogenous in H9c2)) (UniProt Q56A20)
T1 sequence: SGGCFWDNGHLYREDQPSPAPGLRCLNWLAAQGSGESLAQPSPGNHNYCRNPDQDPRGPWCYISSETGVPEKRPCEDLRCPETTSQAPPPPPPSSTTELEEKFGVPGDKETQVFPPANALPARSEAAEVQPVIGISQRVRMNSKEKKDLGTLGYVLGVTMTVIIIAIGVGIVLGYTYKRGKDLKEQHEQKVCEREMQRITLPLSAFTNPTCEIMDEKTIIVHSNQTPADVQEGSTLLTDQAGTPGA


Target: T1, Phosphoinositide-3-kinase (PI3K)-interacting protein 1 (PIK3IP1) (rat (endogenous in H9c2))
Assay: co-IP; H9c2 cells lysed in NP-40 buffer with protease inhibitors; Dynabeads protein G with 10 μL of antibodies or rabbit IgG (mock IP); eluted proteins detected by Western blotting

| Molecule | binding |
| --- | --- |
| p110α (catalytic subunit of PI3Kα) (from UniProt A0A0G2K344 1-1068) | binds |
| endothelin A receptor (ETA) (receptor, UniProt P26684 21-426) DNAERYSANLSSHVEDFTPFPGTEFNFLGTTLQPPNLALPSNGSMHGYCPQQTKITTAFKYINTVISCTIFIVGMVGNATLLRIIYQNKCMRNGPNALIASLALGDLIYVVIDLPINVFKLLAGRWPFDHNDFGVFLCKLFPFLQKSSVGITVLNLCALSVDRYRAVASWSRVQGIGIPLITAIEIVSIWILSFILAIPEAIGFVMVPFEYKGEQHRTCMLNATTKFMEFYQDVKDWWLFGFYFCMPLVCTAIFYTLMTCEMLNRRNGSLRIALSEHLKQRREVAKTVFCLVVIFALCWFPLHLSRILKKTVYDEMDKNRCELLSFLLLMDYIGINLATMNSCINPIALYFVSKKFKNCFQSCLCCCCHQSKSLMTSVPMNGTSIQWKNQEQNHNTERSSHKDSMN | binds |
| endothelin B receptor (ETB) (receptor, UniProt P21451 27-442) EKRGFPPAQATPSLLGTKEVMTPPTKTSWTRGSNSSLMRSSAPAEVTKGGRVAGVPPRSFPPPCQRKIEINKTFKYINTIVSCLVFVLGIIGNSTLLRIIYKNKCMRNGPNILIASLALGDLLHIIIDIPINAYKLLAGDWPFGAEMCKLVPFIQKASVGITVLSLCALSIDRYRAVASWSRIKGIGVPKWTAVEIVLIWVVSVVLAVPEAIGFDVITSDYKGKPLRVCMLNPFQKTAFMQFYKTAKDWWLFSFYFCLPLAITAIFYTLMTCEMLRKKSGMQIALNDHLKQRREVAKTVFCLVLVFALCWLPLHLSRILKLTLYDQSNPQRCELLSFLLVLDYIGINMASLNSCINPIALYLVSKRFKNCFKSCLCCWCQTFEEKQSLEEKQSCLKFKANDHGYDNFRSSNKYSSS | no binding |
